According to patent US20080242594A1, “Methods for Promoting Stem Cell Proliferation and Survival” (priority 2005, published 2008):
For some of these results: For at least one compound, name, drawing or mass did not settle the structure. Some results were stated once for a whole list of compounds, not compound by compound.

Key:
STAT3 = STAT3 phosphorylation (Ser727, Tyr705) immunoblot in CNS stem cells; format: cell-based, mouse; conditions: Notch ligand treated CNS stem cells
Description: Ligands that activate JAK/STAT signaling promote astrocytic differentiation of CNS stem cells (Johe et al., Genes Dev 10:3129-40, 1996; Raj an et al., J Neurosci 18:3620-9, 1998; Bonni et al., Science 278:477-83, 1997; Song et al., Nat Neurosci 7:229-35, 2004; He et al., Nat Neurosci 8:616-625, 2005). When applying CNTF to CNS stem cells it was noted that low concentrations of CNTF stimulated survival but not expression of astrocyte specific genes. This is consistent with previous observations of Akt phosphorylation downstream of gp130 activation (Taga et al., Annu Rev Immunol 15:797-819, 1997). […] At high concentrations (20 ng/ml) the phosphorylation of Tyr705 can be blocked by an inhibitor of JAK while allowing a CNTF-induced increase in Ser727 phosphorylation (FIG. 2B) (Thompson et al., Bioorg Med Chem Lett 12:1219-23, 2002).
CNTF was used as a positive control; CNTF, induced the phosphorylation on both sites. With both CNTF and Notch activation, phosphorylation peaked at around 30 min. STAT3 phosphorylation on Ser727 following Notch activation was sensitive to the γ-secretase inhibitor DAPT (FIG. 2e). […] In contrast to CNTF, no Tyr705 phosphorylation was detected at any of the doses of Notch receptor ligands.
It was determined that insulin also maintains phosphorylation of serine 727 in STAT3 in foetal neural stem cell cultures.

Hes3 = Hes3 expression (RT-PCR, immunohistochemistry) in CNS stem cells; format: cell-based, mouse; conditions: CNTF at high concentrations (>1 ng/ml)
Experimental: RT-PCR: For reverse-transcriptase PCR analysis, RNA was extracted from cell cultures or brain homogenates with Trizol (Invitrogen, 15596-026), and PCR reactions were performed with the ProSTAR First-Strand RT-PCR Kit (Stratagene, 200420). Primers were used for the following genes: Hes1, Hes2, Hes3, Hes5, Hes6, Hey2; Hes7
Notch signaling regulates transcription of the Hes/Hey gene family, a group of genes implicated in the control of differentiation (Iso et al., J Cell Physiol 194:237-55, 2003). RT-PCR was used to assess mRNA regulation of these genes one hour after Notch activation in CNS stem cells. […] The ability of high concentrations of CNTF to inhibit Hes3 induction following Notch activation was dependent on JAK activity (FIG. 4e). In contrast, in the absence of added Notch ligand, Hes3 mRNA levels were elevated by high CNTF and the JAK inhibitor (FIG. 4e).
Conversely, treatment with ciliary neurotrophic factor (CNTF), a cytokine that opposes the signal transduction pathway downstream of Notch activation opposed the ability of D114 to induce Hes3 transcription. Immunohistochemical experiments were performed that documented D114, CNTF regulate Hes3 expression. Thus, at the protein expression level, D114 maintains and CNTF inhibits Hes3 expression.

[1] = test system: E13.5 cortical embryonic mouse CNS stem cells; test: CNS stem cell plating efficiency / colony formation / survival; format: cell-based; conditions: 200 ng/ml, 5 days in the presence of FGF2, 1000 cells/cm^2
Experimental: Cell culture: E13.5 cortical embryonic mouse and adult rat subventricular zone CNS stem cells were grown as previously described (Johe et al., Genes Dev 10:3129-40, 1996; Rajan et al., J Neurosci 18:3620-9, 1998). Cells were expanded in serum-free DMEM/F12 medium with N2 supplement with FGF2 (20 ng/ml) for 5 days and were re-plated at 1000-10,000 cells per cm^2. FGF2 was included throughout our experiments, unless otherwise stated.
To explore these paradoxical observations, CNS stem cell cultures from mid-gestation (embryonic day 13.5) mouse dorsal telencephalon were treated with soluble Notch ligands. […] Following initial passaging, the cells were plated at a density of 1000 cells/cm^2, cultured for 5 days in the presence of FGF2, and colony numbers, sizes, and BrdU incorporation (after a 4 hour BrdU pulse) were enumerated. Notch activation by Jagged-1 or Delta-4 (200 ng/ml) increased the number of colonies generated in vitro by over 3-fold (FIG. 1a). […] The effects of Notch activation were most dramatic when treatments were initiated at the start of the culture.
Insulin in the medium is also thought to promote cell survival. […] Seeding cells in the absence of insulin caused the plating efficiency measured at five days to drop to 29.9%±37.9 (FIG. 1e). Delta-4 was able to compensate for the lack of insulin in the medium, and restored plating efficiency (125%±19.4). […]

Compound | effect on STAT3-Ser727 phosphorylation following Notch activation (STAT3) | effect on Jagged-induced Hes3 mRNA induction (Hes3) | number of colonies generated in vitro, increase [1]
O=c1cc(N2CCOCC2)oc2c(-c3ccccc3)cccc12 [LY294002, reference compound] | sensitive |  | 
CO[C@H]1C[C@@H]2CC[C@@H](C)[C@@](O)(O2)C(=O)C(=O)N2CCCC[C@H]2C(=O)O[C@H]([C@H](C)C[C@@H]2CC[C@@H](O)[C@H](OC)C2)CC(=O)[C@H](C)/C=C(\C)[C@@H](O)[C@@H](OC)C(=O)[C@H](C)C[C@H](C)/C=C/C=C/C=C/1C [rapamycin, reference compound] | blocked STAT3 phosphorylation | sensitive | 
Delta-4: soluble Notch ligand Delta-4 (1389-D4) from R&D |  |  | over 3 fold
